PubChem BioAssay AID743255 (National Center for Advancing Translational Sciences (NCATS), 2014)
In all, about 390,000 compounds went through this assay and about 910 (0.23%) were called active. Inconclusive means that the source gave no clear call. Such entries were picked first, then a sample of the others. The call rests on the fitted dose curve; in most records, active means well fitted inhibition curve with a large enough effect; inconclusive means small, poorly fitted or top-dose-only effect; inactive means no such curve, though single readings can be large or run the other way. Potencies of inconclusive entries are doubtful fits and often do not repeat.

Sequences of proteins named here, by UniProt entry; tags and fusion partners are left off. A change or cut given only in a name is not applied to a line headed by its entry.
UniProt O94782: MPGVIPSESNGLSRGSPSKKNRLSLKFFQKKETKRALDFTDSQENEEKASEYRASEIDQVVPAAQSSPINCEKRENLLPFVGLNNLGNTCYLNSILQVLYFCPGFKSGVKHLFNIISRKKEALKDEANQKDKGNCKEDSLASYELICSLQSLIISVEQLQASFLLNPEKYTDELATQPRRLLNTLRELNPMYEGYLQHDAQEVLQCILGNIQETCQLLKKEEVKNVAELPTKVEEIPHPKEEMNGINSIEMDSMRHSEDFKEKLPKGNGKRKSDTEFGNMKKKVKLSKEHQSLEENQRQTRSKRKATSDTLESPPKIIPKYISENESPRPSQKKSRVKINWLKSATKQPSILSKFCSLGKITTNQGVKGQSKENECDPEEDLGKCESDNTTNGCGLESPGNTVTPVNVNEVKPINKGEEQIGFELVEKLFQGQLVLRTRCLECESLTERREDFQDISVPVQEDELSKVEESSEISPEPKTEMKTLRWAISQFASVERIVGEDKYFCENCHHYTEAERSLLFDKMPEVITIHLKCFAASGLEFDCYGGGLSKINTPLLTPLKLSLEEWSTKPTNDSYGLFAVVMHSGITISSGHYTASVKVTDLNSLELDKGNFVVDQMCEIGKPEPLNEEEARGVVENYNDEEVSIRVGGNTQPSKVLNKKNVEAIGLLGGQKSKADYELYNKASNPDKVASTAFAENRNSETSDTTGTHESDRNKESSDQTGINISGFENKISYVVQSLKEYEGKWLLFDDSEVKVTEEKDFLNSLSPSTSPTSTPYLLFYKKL

molecular target: Ubiquitin carboxyl-terminal hydrolase 1 (Homo sapiens) (UniProt O94782); assay: Inhibitors of USP1/UAF1: Primary Screen; details: recombinant USP1/UAF1, Ub-Rhodamine cleavage fluorescence; series mostly up to 57.1 µM; further: nearly all actives have a fitted effect of over 60% in size
Outline: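 USP1/UAF1 complex at 1 nM was preincubated with compound for 15 min at room temperature, then Ub-Rho substrate (150nM final) was added. Fluorescence (480/540 nm) was read kinetically, 6 reads every 60 seconds.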
Potency means the concentration at half of the fitted maximal effect.

SMILES	Potency
Cc1ccc(-n2nc3ccc(N)cc3n2)cc1	inconclusive: 20 µM [inhibitor, partial curve]
COc1ccc(S(=O)(=O)n2nc(C)cc2C)c(C)c1C	inconclusive: 0.251 µM [inhibitor, full curve, poor fit]
COc1cccc(CNC(=O)c2ccc(CNS(=O)(=O)c3ccc(C)cc3)cc2)c1	inconclusive: 0.0794 µM [inhibitor, full curve, poor fit]
CCN(c1ccccc1)S(=O)(=O)c1nnc(NC(=O)c2ccccc2)s1	inactive
O=C(c1ccc(Cl)cc1)C(CN1CCCCC1)c1ccccc1 (stereo not drawn)	inconclusive: 39.8 µM [inhibitor, partial curve, poor fit]
Cc1ccc(CC(=O)Nc2ccc3c(c2)N(C)C(=O)c2ccccc2S3)cc1	inactive
CCOC(=O)c1c(C)n(C)c2ccc(OC)c(NC(=O)c3cccs3)c12	inactive
COc1ccc(C2NC(=O)NC(C)=C2C(=O)Nc2ccccc2)cc1OC (stereo not drawn)	inconclusive: 0.708 µM [inhibitor, full curve, poor fit]
CCOC(=O)C1Nc2ccccc2C2C(O)C(O)CC12 (stereo not drawn)	inconclusive: 31.6 µM [inhibitor, partial curve, poor fit]
CCOCCCNC(=O)c1cc(Sc2cccc(Cl)c2)nc2ccccc12	inconclusive: 25.1 µM [inhibitor, partial curve, poor fit]
CCN(CC(=O)Nc1c(F)cccc1F)C(=O)c1ccc(S(=O)(=O)N2CCCCCC2)cc1	inconclusive: 3.55 µM [inhibitor, full curve]
Cc1ccc(C(=O)N(C)Cc2nc3ccccc3c(=O)[nH]2)cc1NC(=O)c1ccco1	inconclusive: 31.6 µM [inhibitor, partial curve, poor fit]
CCN(CC)CCCN1C=C2C(=O)C(C)(OC(=O)CCC(=O)OC)C(=O)C(Br)=C2C=C1c1ccc(OC)cc1 (stereo not drawn)	inconclusive: 22.4 µM [inhibitor, partial curve]
Cc1ccc(-n2nc3c(N4CCCC(C(=O)NCc5ccc(Cl)cc5)C4)nnc(C)c3c2C)cc1 (stereo not drawn)	inconclusive: 39.8 µM [inhibitor, partial curve, poor fit]
CCCOc1ccc(C(=O)Nc2ccc3oc(-c4cccc(Cl)c4Cl)nc3c2)cc1	inconclusive: 1 µM [inhibitor, partial curve]
Oc1c(Br)cc(Br)cc1C=NCc1ccccc1	inconclusive: 39.8 µM [inhibitor, partial curve]
COc1ccc(S(=O)(=O)Nc2ccc(-c3ccc(N4CCCC4)nn3)cc2)cc1F	inconclusive: 0.251 µM [inhibitor, full curve, poor fit]
Cc1sc2ncn(CC(=O)Nc3cccc(C(F)(F)F)c3)c(=O)c2c1S(=O)(=O)N1CCN(C)CC1	inconclusive: 0.316 µM [inhibitor, full curve, poor fit]
CC(C)(C)OC(=O)C[C@H]1C/C=C\C[C@H](CC(=O)N(CCO)Cc2ccccc2)C(=O)N[C@@H](Cc2ccccc2)COC1=O	inconclusive: 0.251 µM [inhibitor, full curve, poor fit]

Reformatted bar-delimited: entries from further up
SMILES | Potency
CCN(CC(=O)Nc1c(F)cccc1F)C(=O)c1ccc(S(=O)(=O)N2CCCCCC2)cc1 | inconclusive: 3.55 µM [inhibitor, full curve]
Cc1ccc(C(=O)N(C)Cc2nc3ccccc3c(=O)[nH]2)cc1NC(=O)c1ccco1 | inconclusive: 31.6 µM [inhibitor, partial curve, poor fit]

Remaining list, next part

SMILES	Potency
NS(=O)(=O)c1ccc(-c2c(-c3ccccc3)sc3ccccc23)cc1	inconclusive: 44.7 µM [inhibitor, partial curve, poor fit]
COC(=O)CNC(=O)C1CCN(S(=O)(=O)c2cccc3nsnc23)CC1	inconclusive: 50.1 µM [inhibitor, partial curve, poor fit]
CCOc1ccc(OCC(=O)NCCS(=O)(=O)N2CCN(c3ccccc3F)CC2)cc1	inconclusive: 1.41 µM [inhibitor, full curve, poor fit]
CCOC(=O)/C(C#N)=C1\CCCN1CC(N)=S	inactive
CC1CN(C(=O)CSc2nnc(-c3ccncc3)n2-c2ccccc2)CC(C)O1 (stereo not drawn)	inconclusive: 0.708 µM [inhibitor, full curve]
C[C@@H](C(=O)Nc1ccc2ccccc2c1)[C@H]1C[C@]1(C)[C@H](NC(=O)c1cnccn1)c1ccccc1	inconclusive: 44.7 µM [inhibitor, partial curve]
CN1/C(=C\C=C(C#N)C#N)C(C)(C)c2ccccc21	inconclusive: 28.2 µM [inhibitor, single point]
O=C(NC12CC3CC(CC(C3)C1)C2)c1ccc(Br)o1	inactive
Cc1ccc(C)c(NC(=O)CC2Oc3ccccc3NC2=O)c1 (stereo not drawn)	inconclusive: 1.26 µM [inhibitor, full curve, poor fit]
CC(=O)Nc1ccc(N2C(C(C)=O)=NN(c3ccc(Cl)cc3)C2c2sccc2C)cc1 (stereo not drawn)	inconclusive: 39.8 µM [inhibitor, partial curve, poor fit]
COc1ccc(/C=N/Nc2cc(N3CCCC3)nc(N3CCCC3)n2)cc1	inconclusive: 12.6 µM [inhibitor, partial curve]
CC(=O)Nc1cc(=O)c2cccnc2[nH]1	inconclusive: 14.1 µM [inhibitor, partial curve, poor fit]
CCC(C)(C)C1CCc2[nH]nc(C(=O)NCc3ccc(OC)cc3)c2C1 (stereo not drawn)	inconclusive: 22.4 µM [inhibitor, partial curve]
O=C1NC(=S)N/C1=C/c1cc([N+](=O)[O-])ccc1N1CCOCC1	inconclusive: 35.5 µM [inhibitor, partial curve]
COc1ccc(CN2CC(=O)N(c3ccccc3C)C2=S)cc1OC	inconclusive: 25.1 µM [inhibitor, partial curve, poor fit]
COc1ccc(NC(=O)Cn2nnc(C(=O)NCc3ccc4c(c3)OCO4)c2N)cc1	inconclusive: 8.91 µM [inhibitor, full curve, poor fit]
O=C(Nc1ccccc1O)c1cc2cc(Br)ccc2oc1=O	inconclusive: 39.8 µM [inhibitor, partial curve, poor fit]
CCc1ccc(CN2CCC(Oc3cc(C(=O)NC4CC4)ccc3OC)CC2)cc1	inactive
CC1CCCC(NC(=O)C2CCN(S(=O)(=O)c3cnc[nH]3)CC2)C1C (stereo not drawn)	inconclusive: 0.251 µM [inhibitor, full curve, poor fit]
